Experimental findings from the supplement of paper PMC5407854, “Inhibitor of ppGalNAc-T3-mediated O-glycosylation blocks cancer cell invasiveness and lowers FGF23 levels” (eLife, 2017) are described below.

Over roughly 1,700 compounds, “T3 sensor activation Q score (MG/GFP ratio z-score vs DMSO controls)” has its median near 0.25; the highest 2% begin near 1.9. This is one part of the list.

The test system of the test is ppGalNAc-T3 sensor. As to the kind of experiment: T3 sensor activation Q score (MG/GFP ratio z-score vs DMSO controls) (SD units); higher = more sensor activation (inhibition of ppGalNAc-T3 glycosylation). To be noted: HEK293 sensor cells; 10 µM; 6 h. As for the experimental part:
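Cells were treated with compound at 10 uM for 6 h, then MG/GFP ratio was read by flow cytometry (10,000 cells per well, duplicate wells). Q = (R - R_neg)/SD_neg relative to DMSO vehicle controls; the signal rises when the glycosyltransferase is inhibited.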
Take `CN(C)c1nc(Cl)nc2c1nc(Cl)n2C1CCCCO1` (configuration not stated): the “T3 sensor activation Q score” value worked out at 1.5.

As for `S=P(N1CC1)(N1CC1)N1CC1`, the “T3 sensor activation Q score” value was 0.75.

For the compound `CC(C)c1ccc(-c2nc3ccccc3s2)cc1`, the “T3 sensor activation Q score” value is 0.3.

Regarding `CS/C(=N\S(=O)(=O)c1ccccc1)NNC(=O)c1c(-c2c(Cl)cccc2Cl)noc1C`, the “T3 sensor activation Q score” value turned out to be 0.65.

On to `CNC(=O)c1ccccc1Sc1ccc2c(/C=C/c3ccccn3)n[nH]c2c1`, for which the “T3 sensor activation Q score” value turned out to be 0.7.

Regarding `S=c1[nH]cc2cnccn12`, the “T3 sensor activation Q score” value was -1.4.

As to `Cc1ccc([N+](=O)[O-])cc1NC(=O)Nc1cccc(F)c1`, the “T3 sensor activation Q score” value came to 0.45.

Take `O=Nc1c(-c2cccc([N+](=O)[O-])c2)nc2ncccn12`: the “T3 sensor activation Q score” value is -0.1.

As to `NC(CSC1(c2cccc3ccccc23)c2ccccc2-c2ccccc21)C(=O)O` (configuration not stated), the “T3 sensor activation Q score” value is -0.55.

`O=C(c1ccc(OCCN2CCCCC2)cc1)c1c(-c2ccc(O)cc2)sc2cc(O)ccc12`: the “T3 sensor activation Q score” value came out at 2.7.

Regarding `O=C(O)c1ccccc1-n1c2ccccc2c2ccccc21`, the “T3 sensor activation Q score” value was determined as 0.2.

With `CSc1nc2cc(S(=O)(=O)N3CCCCC3)ccc2s1`, the “T3 sensor activation Q score” value worked out at 0.05.

Take `ClCC(CNCc1ccccc1)c1ccccc1` (configuration not stated): the “T3 sensor activation Q score” value turned out to be 0.35.

For the compound `NS(=O)(=O)c1cc2c(cc1Cl)NC(Cc1ccccc1)NS2(=O)=O` (configuration not stated), the “T3 sensor activation Q score” value is 1.65.

As for `Cc1ccc(N2CCN(CC(O)COc3cccc(C)c3)CC2)cc1` (configuration not stated), the “T3 sensor activation Q score” value is -0.75.

Take `CNC1(C(N)=O)CCNCC1`: the “T3 sensor activation Q score” value was -0.85.

With `Cn1nc(SCc2ccccc2)c(=O)n(C(c2ccccc2)c2ccccc2)c1=O`, the “T3 sensor activation Q score” value is -0.65.

Turning to `O=C(c1ccccc1)C1C(c2ccccc2)C1[N+](=O)[O-]` (configuration not stated), the “T3 sensor activation Q score” value came out at 1.7.

Take `NC(=O)c1cc(C(N)=O)nc(Cl)n1`: the “T3 sensor activation Q score” value is -0.8.

As for `CN(/N=N/c1nc[nH]c1C(=O)NN)C1CCCCC1`, the “T3 sensor activation Q score” value was 1.2.

Turning to `O=C1CSC(c2cccs2)N1c1nncs1` (configuration not stated), the “T3 sensor activation Q score” value was 0.05.

As for `O=[N+]([O-])c1cc2cccnc2c2ncccc12`, the “T3 sensor activation Q score” value was -2.35.

Turning to `CCCn1cnc2c(Sc3c([N+](=O)[O-])ncn3C)nc(N)nc21`, the “T3 sensor activation Q score” value was -0.25.

`S=c1nc[nH]c2nc[nH]c12`: the “T3 sensor activation Q score” value is -0.9.

Turning to `COc1cccc(OCC(O)CN2CCN(c3ccc(Cl)cc3)CC2)c1` (configuration not stated), the “T3 sensor activation Q score” value is -0.4.

Regarding `C=CCN1CCN(c2ccncc2S(=O)(=O)N2CCN(C)CC2)CC1`, the “T3 sensor activation Q score” value was determined as 0.2.

Take `S=C(SCc1cc(Cl)cc2c1OCOC2)N1CCSCC1`: the “T3 sensor activation Q score” value is -0.4.

With `CC(=O)Oc1ccc(OC(C)=O)c2c1CC(C)=C(C)C2`, the “T3 sensor activation Q score” value worked out at 0.8.

With `CCOc1nsc(OCC)n1`, the “T3 sensor activation Q score” value was -0.75.

As to `CCOC(=O)c1cc(-c2ccccc2)nc2ccc(C)cc12`, the “T3 sensor activation Q score” value was determined as 0.8.

Take `O=C1CCCc2cc3c(cc21)CC1(C3)Cc2cc3c(cc2C1)C(=O)CCC3`: the “T3 sensor activation Q score” value is -1.45.

Take `S=c1[nH]c2ccc(Cl)cc2s1`: the “T3 sensor activation Q score” value is 1.2.

For `CCOC(=O)C(C)c1c(C(=O)c2ccc(C)nc2)c2ccccc2n1C` (configuration not stated), the “T3 sensor activation Q score” value is -0.35.

Regarding `O=c1cc(-c2ccccc2)oc2ccc(O)cc12`, the “T3 sensor activation Q score” value came out at 0.15.

As for `O=c1[nH]c2c(cnn2-c2ccc(Cl)cc2)c(=O)n1-c1cccc(Cl)c1`, the “T3 sensor activation Q score” value was found to be 1.75.

For `OC(COc1cccc2ccccc12)CN1CCN(c2ccccc2Cl)CC1` (configuration not stated), the “T3 sensor activation Q score” value is -0.2.

As for `Cn1ncc2c(Nc3ccccc3Cl)nc(Nc3ccccc3Cl)nc21`, the “T3 sensor activation Q score” value came to 0.6.

In the case of `CN(C)c1ccc2c(c1)Sc1cc(N(C)C)ccc1N2C(=O)c1ccccc1`, the “T3 sensor activation Q score” value was -0.3.

Consider `CC1=C(c2ccccc2)C=NNCC1=O`, for which the “T3 sensor activation Q score” value was determined as 0.2.

Consider `Cc1ccccc1NC(=O)C(=O)Nc1ccccc1C`, for which the “T3 sensor activation Q score” value came out at 1.

On to `CSc1c(N(C)C)c(=O)c1=S`, for which the “T3 sensor activation Q score” value stood at 0.45.

Consider `CCN(CC)CCN=c1c(C)nc(C#N)c(N)n1O`, for which the “T3 sensor activation Q score” value was determined as 0.7.

In the case of `CN(C)c1nc(=NCc2ccco2)ss1`, the “T3 sensor activation Q score” value was -1.15.

Consider `O=c1cc(CO)[nH]nc1CO`, for which the “T3 sensor activation Q score” value was -1.25.

Consider `OC[C@@H]1CCC[C@H](n2cnc3c(=S)nc[nH]c32)O1`, for which the “T3 sensor activation Q score” value was 0.1.

Regarding `CCOc1cc2c(Cl)ncnc2c(OCC)c1OCC`, the “T3 sensor activation Q score” value worked out at 0.35.

With `O=C(NC(=S)Nc1cccc2c(O)cccc12)c1cccc(Br)c1`, the “T3 sensor activation Q score” value is -0.75.

For `NC(=O)NO`, the “T3 sensor activation Q score” value came to 1.

For the compound `O=C(Nc1cccc2c1N(C(=O)c1ccco1)CCC2)c1ccco1`, the “T3 sensor activation Q score” value was found to be 1.05.

For the compound `CCC(C)Nc1nc2c(c(=O)n(C)c(=O)n2C)n1C` (configuration not stated), the “T3 sensor activation Q score” value is 1.4.

Regarding `Nc1ncnc2c1ncn2[C@@H]1C=C(CO)[C@@H](O)[C@H]1O`, the “T3 sensor activation Q score” value turned out to be 1.55.

On to `CO[C@H]1C(=O)[C@]2(C)[C@@H](OC)C[C@H]3OC[C@@]3(OC(C)=O)[C@H]2[C@H](OC(=O)c2ccccc2)[C@]2(O)C[C@H](OC(=O)[C@H](O)[C@@H](NC(=O)OC(C)(C)C)c3ccccc3)C(C)=C1C2(C)C`, for which the “T3 sensor activation Q score” value was -1.1.

In the case of `CC(O)c1nc2c(c(=O)n(C)c(=O)n2C)n1C` (configuration not stated), the “T3 sensor activation Q score” value was -0.25.

On to `NC(=O)c1ccccc1OCC(=O)Nc1ccc(Cl)c(Cl)c1`, for which the “T3 sensor activation Q score” value was -1.3.

As for `O=[N+]([O-])c1[nH]cnc1/C=C/c1ccccc1`, the “T3 sensor activation Q score” value was -1.15.

As for `CN=C1C=C/C(=N/N=c2/ccn(O)cc2C)C=C1C`, the “T3 sensor activation Q score” value stood at 0.15.

Consider `Nc1nc(F)nc2c1ncn2C1OC(COP(=O)(O)O)C(O)C1O` (configuration not stated), for which the “T3 sensor activation Q score” value was -0.05.
